Data published in article PMC8335693.
Results are given in words; binding and its absence hold for the method and conditions named. In cells and extracts the contact can be indirect. Some binding calls cover weakened binding; strength is not graded here.

Sequences of proteins named here, by UniProt entry; tags and fusion partners are left off.
UniProt Q05397: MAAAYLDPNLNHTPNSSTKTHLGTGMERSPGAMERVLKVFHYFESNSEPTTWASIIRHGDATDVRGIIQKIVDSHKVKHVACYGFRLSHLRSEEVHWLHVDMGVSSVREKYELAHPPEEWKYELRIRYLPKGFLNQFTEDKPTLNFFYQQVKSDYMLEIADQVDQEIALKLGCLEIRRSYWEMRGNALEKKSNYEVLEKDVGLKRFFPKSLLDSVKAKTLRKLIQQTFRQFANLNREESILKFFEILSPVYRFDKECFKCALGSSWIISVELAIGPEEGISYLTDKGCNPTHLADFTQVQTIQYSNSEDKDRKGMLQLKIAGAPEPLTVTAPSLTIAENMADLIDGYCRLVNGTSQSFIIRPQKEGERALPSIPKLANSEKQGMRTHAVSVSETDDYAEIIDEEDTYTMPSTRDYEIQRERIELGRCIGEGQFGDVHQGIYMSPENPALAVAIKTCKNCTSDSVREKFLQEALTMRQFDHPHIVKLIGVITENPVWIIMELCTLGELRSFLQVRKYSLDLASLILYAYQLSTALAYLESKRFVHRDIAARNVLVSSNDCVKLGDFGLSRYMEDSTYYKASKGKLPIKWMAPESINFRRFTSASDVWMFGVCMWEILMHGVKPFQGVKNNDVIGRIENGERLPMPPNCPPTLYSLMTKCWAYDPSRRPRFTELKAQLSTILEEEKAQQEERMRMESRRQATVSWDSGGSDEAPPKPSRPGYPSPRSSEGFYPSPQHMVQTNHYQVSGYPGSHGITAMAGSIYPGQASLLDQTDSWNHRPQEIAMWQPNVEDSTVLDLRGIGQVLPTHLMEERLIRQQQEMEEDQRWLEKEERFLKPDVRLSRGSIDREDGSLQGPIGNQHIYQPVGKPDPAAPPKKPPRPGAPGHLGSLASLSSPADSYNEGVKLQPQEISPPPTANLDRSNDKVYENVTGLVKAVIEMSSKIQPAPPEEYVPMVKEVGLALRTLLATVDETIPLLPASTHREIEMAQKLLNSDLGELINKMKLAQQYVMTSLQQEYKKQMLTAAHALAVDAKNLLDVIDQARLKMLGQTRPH

Target: focal adhesion kinase (FAK) (human (endogenous in HUVECs)) (UniProt Q05397)
Test: co-IP; HUVECs stimulated with rhMG53 (10 μg/mL) or vehicle control for 24 h; lysates incubated with protein A/G plus agarose beads and anti-FAK antibody or IgG overnight at 4℃ (Pierce classic IP kit); immunoblot with antibodies against MG53 and Src

B1: recombinant human MG53 (Mitsugumin 53) (protein, UniProt Q6ZMU5 1-477)
chain: MSAAPGLLHQELSCPLCLQLFDAPVTAECGHSFCRACLGRVAGEPAADGTVLCPCCQAPTRPQALSTNLQLARLVEGLAQVPQGHCEEHLDPLSIYCEQDRALVCGVCASLGSHRGHRLLPAAEAHARLKTQLPQQKLQLQEACMRKEKSVAVLEHQLVEVEETVRQFRGAVGEQLGKMRVFLAALEGSLDREAERVRGEAGVALRRELGSLNSYLEQLRQMEKVLEEVADKPQTEFLMKYCLVTSRLQKILAESPPPARLDIQLPIISDDFKFQVWRKMFRALMPALEELTFDPSSAHPSLVVSSSGRRVECSEQKAPPAGEDPRQFDKAVAVVAHQQLSEGEHYWEVDVGDKPRWALGVIAAEAPRRGRLHAVPSQGLWLLGLREGKILEAHVEAKEPRALRSPERRPTRIGLYLSFGDGVLSFYDASDADALVPLFAFHERLPRPVYPFFDVCWHDKGKNAQPLLLVGPEGAEA
Question: How did the binding turn out when B1 was run?
Answer: The binding was “binds”.
